Experimental data from paper PMC12730314.
Construct, isoform or probe ends are uncertain for at least one entry.

Test system: thrombin (human plasma) (Homo sapiens)
Assay: fluorescence anisotropy
Settings: earlier work by the same group; Thrombin: TGK (192 mM Tris, 5 mM KH2PO4, 25 mM glycine hydrochloride; pH not stated) +/- 0.1% Tween 20, thrombin stock in 1 mg/mL BSA, 25 C, 40 min; native protein; folded or branched DNA

## AGTCCGTGGTAGGGCAGGTTGGGGTGACT [TR-labeled thrombin-binding 29mer]
  Kd: 45.6 nM
